Data on eight molecules can be found in paper PMC4632068.

The chains behind the UniProt entries cited, without tags or fusion partners.
UniProt P07260: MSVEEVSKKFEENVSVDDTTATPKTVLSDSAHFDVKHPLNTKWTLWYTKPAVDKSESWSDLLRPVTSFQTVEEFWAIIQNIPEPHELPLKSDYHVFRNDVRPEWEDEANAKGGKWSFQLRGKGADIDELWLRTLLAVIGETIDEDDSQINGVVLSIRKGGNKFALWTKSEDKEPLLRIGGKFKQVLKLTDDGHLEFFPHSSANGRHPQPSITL
UniProt P25491: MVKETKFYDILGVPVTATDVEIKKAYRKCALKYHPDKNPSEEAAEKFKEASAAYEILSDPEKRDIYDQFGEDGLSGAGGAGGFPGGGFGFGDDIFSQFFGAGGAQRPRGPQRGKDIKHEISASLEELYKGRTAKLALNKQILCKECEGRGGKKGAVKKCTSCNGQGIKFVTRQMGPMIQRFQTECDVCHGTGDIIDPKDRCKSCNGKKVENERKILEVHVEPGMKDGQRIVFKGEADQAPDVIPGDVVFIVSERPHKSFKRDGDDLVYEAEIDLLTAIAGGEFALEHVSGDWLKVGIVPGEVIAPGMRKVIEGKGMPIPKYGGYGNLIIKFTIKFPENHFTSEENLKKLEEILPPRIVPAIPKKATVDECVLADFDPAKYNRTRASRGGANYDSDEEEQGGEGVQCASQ

These are yes or no findings as the source states them, for the method shown. In cells and extracts the contact can be indirect. A yes stands for co-enrichment or nearness to the bait. Other partners may have been found. For part of these data: A no says only that the protein was not detected with the bait. Tags and fused reporters may be left off the sequences shown.

The target of experiment [1] is T1, Dhh1−GFP (S. cerevisiae (endogenous in BY4741-derived yeast)) (UniProt P39517).
T1 sequence: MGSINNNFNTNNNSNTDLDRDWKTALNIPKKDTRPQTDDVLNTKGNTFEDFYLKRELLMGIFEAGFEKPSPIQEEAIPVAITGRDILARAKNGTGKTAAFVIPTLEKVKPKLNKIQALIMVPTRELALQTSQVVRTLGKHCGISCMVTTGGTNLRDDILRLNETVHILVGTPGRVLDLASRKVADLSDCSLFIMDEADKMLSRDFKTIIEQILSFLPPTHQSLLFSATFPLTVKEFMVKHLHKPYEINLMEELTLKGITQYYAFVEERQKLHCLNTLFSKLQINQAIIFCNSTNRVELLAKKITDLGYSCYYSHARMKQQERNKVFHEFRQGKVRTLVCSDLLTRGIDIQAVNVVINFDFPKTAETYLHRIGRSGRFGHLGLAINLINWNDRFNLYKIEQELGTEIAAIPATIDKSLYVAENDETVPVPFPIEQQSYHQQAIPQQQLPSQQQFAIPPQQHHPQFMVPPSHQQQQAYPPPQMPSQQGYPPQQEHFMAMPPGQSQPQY
Briefly: affinity purification with mass spectrometry; Dhh1−GFP captured by anti-GFP IgG cross-linked to Protein-G Dynabeads from cleared lysate of cryo-ground yeast; RB buffer (30 mM K-Hepes pH 7.4, 150 mM KCl, 2 mM MgCl2, 0.2% NP-40, 0.1% Tween-20, 1 mM DTT, RNase inhibitor), 30 min at 4°; five purifications (two +glucose YPD, three 30 min −glucose YEP); hits filtered by SAINT against CRAPome controls.

The target of experiment [2] is T1, Dhh1−GFP (S. cerevisiae (endogenous in BY4741-derived yeast)). The experiment is described as follows: affinity purification with mass spectrometry; as a1, only the purifications from cells grown in +glucose media (YPD; P-bodies not induced).
Experiment [3] deals with T2, Dhh1−GFP (S. cerevisiae (endogenous in BY4741-derived yeast)), P39517.
T2 chain: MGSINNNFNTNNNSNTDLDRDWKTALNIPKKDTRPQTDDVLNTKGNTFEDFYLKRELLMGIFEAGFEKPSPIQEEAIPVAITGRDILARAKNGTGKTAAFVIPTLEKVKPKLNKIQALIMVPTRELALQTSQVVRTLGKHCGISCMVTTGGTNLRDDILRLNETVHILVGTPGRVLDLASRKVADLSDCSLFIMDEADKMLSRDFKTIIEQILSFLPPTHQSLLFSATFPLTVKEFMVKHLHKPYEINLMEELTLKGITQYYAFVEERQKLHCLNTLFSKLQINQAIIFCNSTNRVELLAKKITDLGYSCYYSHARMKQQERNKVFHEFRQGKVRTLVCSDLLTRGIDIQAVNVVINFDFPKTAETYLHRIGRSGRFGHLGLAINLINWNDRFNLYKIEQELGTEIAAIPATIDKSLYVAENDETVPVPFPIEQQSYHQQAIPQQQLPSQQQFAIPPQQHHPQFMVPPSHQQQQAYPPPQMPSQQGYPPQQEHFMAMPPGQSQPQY
The experiment is described as follows: affinity purification with mass spectrometry; I-DIRT (SILAC): light Dhh1−GFP grindate mixed 1:1 with isotopically heavy BY4741 grindate before resuspending in RB buffer, anti-GFP immunoisolation; light:heavy peptide ratios. The conditions noted are these: remark: other sources report otherwise.

Experiment [4] concerns the target T2, Dhh1−GFP (S. cerevisiae (endogenous in …)). Briefly: affinity purification with mass spectrometry; Dhh1−GFP captured by anti-GFP IgG cross-linked to Protein-G Dynabeads from cleared lysate of cryo-ground yeast; RB buffer (30 mM K-Hepes pH 7.4, 150 mM KCl, 2 mM MgCl2, 0.2% NP-40, 0.1% Tween-20, 1 mM DTT, RNase inhibitor), 30 min at 4°; five purifications (two +glucose YPD, three 30 min −glucose YEP); hits filtered by SAINT against CRAPome controls. The conditions noted are these: remark: other sources report otherwise.

For experiment [5], the target named is T1, Dhh1−GFP (S. cerevisiae (endogenous in BY4741-derived yeast)). Briefly: affinity purification with mass spectrometry; I-DIRT (SILAC): light Dhh1−GFP grindate mixed 1:1 with isotopically heavy BY4741 grindate before resuspending in RB buffer, anti-GFP immunoisolation; light:heavy peptide ratios.

Regarding Cdc33 (from UniProt P07260 1-213), the binding result is listed as “binds” in experiment [1] and “no binding (only cells grown in +glucose media)” in experiment [2].

As for Ydj1 (from UniProt P25491 1-409), the binding result in experiment [1] is listed as “binds”; in experiment [2] it was “no binding (only cells grown in +glucose media)”.

B1: Pop2 (protein, UniProt P39008 1-433)
chain: MQSMNVQPRVLAVGGEQFFSQRQASEQHQQQNMGPQVYSPKVNRARMFPQGMPVNTINGSVNQEMNNAYLLKQKNEPLLTQQQQQQQQQQQPFNIGTPVSVASLPPGLNVLQQQQQQQQQQQQQQQGVGLNRPLASQLPKHLTNQSMPPIFLPPPNYLFVRDVWKSNLYSEFAVIRQLVSQYNHVSISTEFVGTLARPIGTFRSKVDYHYQTMRANVDFLNPIQLGLSLSDANGNKPDNGPSTWQFNFEFDPKKEIMSTESLELLRKSGINFEKHENLGIDVFEFSQLLMDSGLMMDDSVTWITYHAAYDLGFLINILMNDSMPNNKEDFEWWVHQYMPNFYDLNLVYKIIQEFKNPQLQQSSQQQQQQQYSLTTLADELGLPRFSIFTTTGGQSLLMLLSFCQLSKLSMHKFPNGTDFAKYQGVIYGIDGDQ
In the case of B1, the binding result in experiment [1] is on record as “no binding”.

B2: Suv3 (protein, UniProt P32580 26-737)
chain: YYHSEPHSIDLFHDKDWIVKRPKFLNLPKNEHSKLDIFQFNFNKSESNNVYLQDSSFKDNLDKAMQFIYNDKLSSLDAKQVPIKNLAWLKLRDYIYQQLKDPKLQAKTYVPSVSEIIHPSSPGNLISLLINCNKISNLVWKSVLKYSLSNNITTLDKFIHVLQQTFDHVYEQEILPMMTNTDDTDGAHNVDITNPAEWFPEARKIRRHIIMHIGPTNSGKTYRALQKLKSVDRGYYAGPLRLLAREVYDRFHAEKIRCNLLTGEEVIRDLDDRGNSAGLTSGTVEMVPINQKFDVVVLDEIQMMSDGDRGWAWTNALLGVVSKEVHLCGEKSVLPLVKSIVKMTGDKLTINEYERLGKLSVEEKPIKDGIKGLRKGDCVVAFSKKKILDLKLKIEKDTNLKVAVIYGSLPPETRVQQAALFNNGEYDIMVASDAIGMGLNLSIDRVVFTTNMKYNGEELMEMTSSQIKQIGGRAGRFKSRSASGGVPQGFITSFESKVLKSVRKAIEAPVEYLKTAVTWPTDEICAQLMTQFPPGTPTSVLLQTISDELEKSSDNLFTLSDLKSKLKVIGLFEHMEDIPFFDKLKLSNAPVKDMPMVTKAFTKFCETIAKRHTRGLLSYRLPFNLLDYNCIPNESYSLEVYESLYNIITLYFWLSNRYPNYFIDMESAKDLKYFCEMIIFEKLDRLKKNPYAHKPFGSTRGHLSSSRRRLRT
Regarding B2, in experiment [1], the binding entry is listed as “no binding”.

B3: Ccr4 (protein, UniProt P31384 1-837)
chain: MNDPSLLGYPNVGPQQQQQQQQQQHAGLLGKGTPNALQQQLHMNQLTGIPPPGLMNNSDVHTSSNNNSRQLLDQLANGNANMLNMNMDNNNNNNNNNNNNNNNGGGSGVMMNASTAAVNSIGMVPTVGTPVNINVNASNPLLHPHLDDPSLLNNPIWKLQLHLAAVSAQSLGQPNIYARQNAMKKYLATQQAQQAQQQAQQQAQQQVPGPFGPGPQAAPPALQPTDFQQSHIAEASKSLVDCTKQALMEMADTLTDSKTAKKQQPTGDSTPSGTATNSAVSTPLTPKIELFANGKDEANQALLQHKKLSQYSIDEDDDIENRMVMPKDSKYDDQLWHALDLSNLQIFNISANIFKYDFLTRLYLNGNSLTELPAEIKNLSNLRVLDLSHNRLTSLPAELGSCFQLKYFYFFDNMVTTLPWEFGNLCNLQFLGVEGNPLEKQFLKILTEKSVTGLIFYLRDNRPEIPLPHERRFIEINTDGEPQREYDSLQQSTEHLATDLAKRTFTVLSYNTLCQHYATPKMYRYTPSWALSWDYRRNKLKEQILSYDSDLLCLQEVESKTFEEYWVPLLDKHGYTGIFHAKARAKTMHSKDSKKVDGCCIFFKRDQFKLITKDAMDFSGAWMKHKKFQRTEDYLNRAMNKDNVALFLKLQHIPSGDTIWAVTTHLHWDPKFNDVKTFQVGVLLDHLETLLKEETSHNFRQDIKKFPVLICGDFNSYINSAVYELINTGRVQIHQEGNGRDFGYMSEKNFSHNLALKSSYNCIGELPFTNFTPSFTDVIDYIWFSTHALRVRGLLGEVDPEYVSKFIGFPNDKFPSDHIPLLARFEFMKTNTGSKKV
On to B3, for which the binding result in experiment [1] is recorded as “no binding”.

B4: Dcp2, P53550 1-970 (protein)
chain: MSLPLRHALENVTSVDRILEDLLVRFIINCPNEDLSSVERELFHFEEASWFYTDFIKLMNPTLPSLKIKSFAQLIIKLCPLVWKWDIRVDEALQQFSKYKKSIPVRGAAIFNENLSKILLVQGTESDSWSFPRGKISKDENDIDCCIREVKEEIGFDLTDYIDDNQFIERNIQGKNYKIFLISGVSEVFNFKPQVRNEIDKIEWFDFKKISKTMYKSNIKYYLINSMMRPLSMWLRHQRQIKNEDQLKSYAEEQLKLLLGITKEEQIDPGRELLNMLHTAVQANSNNNAVSNGQVPSSQELQHLKEQSGEHNQQKDQQSSFSSQQQPSIFPSLSEPFANNKNVIPPTMPMANVFMSNPQLFATMNGQPFAPFPFMLPLTNNSNSANPIPTPVPPNFNAPPNPMAFGVPNMHNLSGPAVSQPFSLPPAPLPRDSGYSSSSPGQLLDILNSKKPDSNVQSSKKPKLKILQRGTDLNSIKQNNNDETAHSNSQALLDLLKKPTSSQKIHASKPDTSFLPNDSVSGIQDAEYEDFESSSDEEVETARDERNSLNVDIGVNVMPSEKDSRRSQKEKPRNDASKTNLNASAESNSVEWGPGKSSPSTQSKQNSSVGMQNKYRQEIHIGDSDAYEVFESSSDEEDGKKLEELEQTQDNSKLISQDILKENNFQDGEVPHRDMPTESNKSINETVGLSSTTNTVKKVPKVKILKRGETFASLANDKKAFDSSSNVSSSKDLLQMLRNPISSTVSSNQQSPKSQHLSGDEEIMMMLKRNSVSKPQNSEENASTSSINDANASELLGMLKQKEKDITAPKQPYNVDSYSQKNSAKGLLNILKKNDSTGYPRTEGGPSSEMSTSMKRNDATNNQELDKNSTELLNYLKPKPLNDGYENISNKDSSHELLNILHGNKNSSAFNNNVYATDGYSLASDNNENSSNKLLNMLQNRSSAINEPNFDVRSNGTSGSNELLSILHRK
With B4, the binding result in experiment [3] and in experiment [4] was “binds” in each case.

B5: Scd6, P45978 1-349 (protein)
chain: MSQYIGKTISLISVTDNRYVGLLEDIDSEKGTVTLKEVRCFGTEGRKNWGPEEIYPNPTVYNSVKFNGSEVKDLSILDANINDIQPVVPQMMPPASQFPPQQAQSPPQAQAQAHVQTNPQVPKPESNVPAAVAGYGVYTPTSTETATASMNDKSTPQDTNVNSQSRERGKNGENEPKYQRNKNRSSNRPPQSNRNFKVDIPNEDFDFQSNNAKFTKGDSTDVEKEKELESAVHKQDESDEQFYNKKSSFFDTISTSTETNTNMRWQEEKMLNVDTFGQASARPRFHSRGLGRGRGNYRGNRGNRGRGGQRGNYQNRNNYQNDSGAYQNQNDSYSRPANQFSQPPSNVEF
With B5, the binding result in experiment [4] is “no binding”.

B6: Dcp1 (protein, UniProt Q12517 1-231)
chain: MTGAATAAENSATQLEFYRKALNFNVIGRYDPKIKQLLFHTPHASLYKWDFKKDEWNKLEYQGVLAIYLRDVSQNTNLLPVSPQEVDIFDSQNGSNNIQVNNGSDNSNRNSSGNGNSYKSNDSLTYNCGKTLSGKDIYNYGLIILNRINPDNFSMGIVPNSVVNKRKVFNAEEDTLNPLECMGVEVKDELVIIKNLKHEVYGIWIHTVSDRQNIYELIKYLLENEPKDSFA
Turning to B6, the binding entry in experiment [5] and in experiment [1] was “binds” throughout.
